Laboratory results as given in article PMC9151573.
Results are given in words; binding and its absence hold for the method and conditions named. Binding seen in cells or lysates may run through a third protein. A yes stands for co-enrichment or nearness to the bait. Other partners may have been found. For some of these results: A no says only that the protein was not detected with the bait. One block for each binder: values may come before it.

Tests used:
[1] = molecular target: p53 (endogenous) (human (endogenous in HepG2)) (UniProt P04637); test: affinity purification with mass spectrometry; RIME as above, samples of cells kept 24 h in growth medium only
[2] = molecular target: p53 (endogenous) (human (endogenous in HepG2)) (UniProt P04637); test: affinity purification with mass spectrometry; RIME: HepG2 wt cells 24 h in growth or starvation medium, cross-linked with 1% formaldehyde, nuclei isolated, endogenous p53 precipitated with DO1 antibody, IgG2A isotype control, on-bead digest, LC-MS/MS
[3] = molecular target: V5-p53-miniTurbo-NES (human) (UniProt P04637); test: proximity labelling; BioID: V5-p53-miniTurbo-NES in HepG2 p53KO cells, 2 h growth or starvation medium with 250 µM biotin; lysis in 8 M urea, streptavidin beads, LC-MS/MS; background control V5-EGFP-miniTurbo-NES
[4] = molecular target: V5-p53-miniTurbo-NES (human), P04637; test: as above; conditions: remark: other sources report otherwise

binding [1]: no binding (only cells in growth medium) | binding [2]: binds
B1: UGP2 (endogenous) (enzyme, UniProt Q16851 1-508)
chain: MSRFVQDLSKAMSQDGASQFQEVIRQELELSVKKELEKILTTASSHEFEHTKKDLDGFRKLFHRFLQEKGPSVDWGKIQRPPEDSIQPYEKIKARGLPDNISSVLNKLVVVKLNGGLGTSMGCKGPKSLIGVRNENTFLDLTVQQIEHLNKTYNTDVPLVLMNSFNTDEDTKKILQKYNHCRVKIYTFNQSRYPRINKESLLPVAKDVSYSGENTEAWYPPGHGDIYASFYNSGLLDTFIGEGKEYIFVSNIDNLGATVDLYILNHLMNPPNGKRCEFVMEVTNKTRADVKGGTLTQYEGKLRLVEIAQVPKAHVDEFKSVSKFKIFNTNNLWISLAAVKRLQEQNAIDMEIIVNAKTLDGGLNVIQLETAVGAAIKSFENSLGINVPRSRFLPVKTTSDLLLVMSNLYSLNAGSLTMSEKREFPTVPLVKLGSSFTKVQDYLRRFESIPDMLELDHLTVSGDVTFGKNVSLKGTVIIIANHGDRIDIPPGAVLENKIVSGNLRILDH

binding [3]: binds
B2: transcription factor A (TFAM) (protein, UniProt Q00059 43-246)
chain: SSVLASCPKKPVSSYLRFSKEQLPIFKAQNPDAKTTELIRRIAQRWRELPDSKKKIYQDAYRAEWQVYKEEISRFKEQLTPSQIMSLEKEIMDKHLKRKAMTKKKELTLLGKPKRPRSAYNVYVAERFQEAKGDSPQEKLKTVKENWKNLSDSEKELYIQHAKEDETRYHNEMKSWEEQMIEVGRKDLLRRTIKKQRKYGAEEC

binding [2]: binds
B3: Sorbin and SH3 domain-containing protein 1 (SORBS1) (protein, UniProt Q9BX66 1-1292)
chain: MSSECDGGSKAVMNGLAPGSNGQDKATADPLRARSISAVKIIPVKTVKNASGLVLPTDMDLTKICTGKGAVTLRASSSYRETPSSSPASPQETRQHESKPGLEPEPSSADEWRLSSSADANGNAQPSSLAAKGYRSVHPNLPSDKSQDATSSSAAQPEVIVVPLYLVNTDRGQEGTARPPTPLGPLGCVPTIPATASAASPLTFPTLDDFIPPHLQRWPHHSQPARASGSFAPISQTPPSFSPPPPLVPPAPEDLRRVSEPDLTGAVSSTDSSPLLNEVSSSLIGTDSQAFPSVSKPSSAYPSTTIVNPTIVLLQHNREQQKRLSSLSDPVSERRVGEQDSAPTQEKPTSPGKAIEKRAKDDSRRVVKSTQDLSDVSMDEVGIPLRNTERSKDWYKTMFKQIHKLNRDTPEENPYFPTYKFPELPEIQQTSEEDNPYTPTYQFPASTPSPKSEDDDSDLYSPRYSFSEDTKSPLSVPRSKSEMSYIDGEKVVKRSATLPLPARSSSLKSSSERNDWEPPDKKVDTRKYRAEPKSIYEYQPGKSSVLTNEKMSRDISPEEIDLKNEPWYKFFSELEFGKPPPKKIWDYTPGDCSILPREDRKTNLDKDLSLCQTELEADLEKMETLNKAPSANVPQSSAISPTPEISSETPGYIYSSNFHAVKRESDGAPGDLTSLENERQIYKSVLEGGDIPLQGLSGLKRPSSSASTKDSESPRHFIPADYLESTEEFIRRRHDDKEKLLADQRRLKREQEEADIAARRHTGVIPTHHQFITNERFGDLLNIDDTAKRKSGSEMRPARAKFDFKAQTLKELPLQKGDIVYIYKQIDQNWYEGEHHGRVGIFPRTYIELLPPAEKAQPKKLTPVQVLEYGEAIAKFNFNGDTQVEMSFRKGERITLLRQVDENWYEGRIPGTSRQGIFPITYVDVIKRPLVKNPVDYMDLPFSSSPSRSATASPQFSSHSKLITPAPSSLPHSRRALSPEMHAVTSEWISLTVGVPGRRSLALTPPLPPLPEASIYNTDHLALSPRASPSLSLSLPHLSWSDRPTPRSVASPLALPSPHKTYSLAPTSQASLHMNGDGGVHTPSSGIHQDSFLQLPLGSSDSVISQLSDAFSSQSKRQPWREESGQYERKAERGAGERGPGGPKISKKSCLKPSDVVRCLSTEQRLSDLNTPEESRPGKPLGSAFPGSEAEQTERHRGGEQAGRKAARRGGSQQPQAQQRRVTPDRSQTSQDLFSYQALYSYIPQNDDELELRDGDIVDVMEKCDDGWFVGTSRRTKQFGTFPGNYVKPLYL

binding [4]: binds
B4: Phosphoglycerate kinase 1 (PGK1), P00558 1-417 (enzyme)
chain: MSLSNKLTLDKLDVKGKRVVMRVDFNVPMKNNQITNNQRIKAAVPSIKFCLDNGAKSVVLMSHLGRPDGVPMPDKYSLEPVAVELKSLLGKDVLFLKDCVGPEVEKACANPAAGSVILLENLRFHVEEEGKGKDASGNKVKAEPAKIEAFRASLSKLGDVYVNDAFGTAHRAHSSMVGVNLPQKAGGFLMKKELNYFAKALESPERPFLAILGGAKVADKIQLINNMLDKVNEMIIGGGMAFTFLKVLNNMEIGTSLFDEEGAKIVKDLMSKAEKNGVKITLPVDFVTADKFDENAKTGQATVASGIPAGWMGLDCGPESSKKYAEAVTRAKQIVWNGPVGVFEWEAFARGTKALMDEVVKATSRGCITIIGGGDTATCCAKWNTEDKVSHVSTGGGASLELLEGKVLPGVDALSNI

binding [3]: binds
B5: Peroxiredoxin-2 (PRDX2) (enzyme, UniProt P32119 1-198)
chain: MASGNARIGKPAPDFKATAVVDGAFKEVKLSDYKGKYVVLFFYPLDFTFVCPTEIIAFSNRAEDFRKLGCEVLGVSVDSQFTHLAWINTPRKEGGLGPLNIPLLADVTRRLSEDYGVLKTDEGIAYRGLFIIDGKGVLRQITVNDLPVGRSVDEALRLVQAFQYTDEHGEVCPAGWKPGSDTIKPNVDDSKEYFSKHN

binding [3]: binds
B6: Malate dehydrogenase (MDH2) (enzyme, UniProt P40926 25-338)
chain: AKVAVLGASGGIGQPLSLLLKNSPLVSRLTLYDIAHTPGVAADLSHIETKAAVKGYLGPEQLPDCLKGCDVVVIPAGVPRKPGMTRDDLFNTNATIVATLTAACAQHCPEAMICVIANPVNSTIPITAEVFKKHGVYNPNKIFGVTTLDIVRANTFVAELKGLDPARVNVPVIGGHAGKTIIPLISQCTPKVDFPQDQLTALTGRIQEAGTEVVKAKAGAGSATLSMAYAGARFVFSLVDAMNGKEGVVECSFVKSQETECTYFSTPLLLGKKGIEKNLGIGKVSSFEEKMISDAIPELKASIKKGEDFVKTLK
